Assay results from PubChem BioAssay AID493014 (National Center for Advancing Translational Sciences (NCATS), 2011).
Screen size: about 340,000 compounds; about 170 (0.05%) were called active. This list was built around the results that the source calls inconclusive (neither active nor inactive); the mix of calls is not that of the screen. Calls follow the shape of the dose curve; as a rule, active = well fitted inhibition curve with a large enough effect in the signal ratio, with a control signal flat (not every such curve was filed as active); inconclusive = small, poorly fitted or top-dose-only effect, or effect the other way, or a change in a side signal; inactive = flat fitted curve, though single readings scatter; the % refers to the signal ratio. A potency beside an inconclusive call is a rough fit, not a confirmed value.

Test: qHTS Assay to Find Inhibitors of Chronic Active B-Cell Receptor Signaling;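 as to activity change, negative = inhibition: plate controls were basal doxycycline-induced cells for no effect and cells given 10 µM MG132 for full effect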
Conditions: ABC-DLBCL IkBa-CBG/CBR reporter, luminescence ratio (green luciferase fused to IkBa over red control in TMD8 lymphoma cells), 4 h; activity change, negative = inhibition: at 46.1 µM (top of the series)
How it was run: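 Doxycycline induced both beetle luciferases in TMD8 lymphoma cells; IKK-driven degradation limits the IkappaBalpha-fused green signal, while red luminescence normalises for cell number and nonspecific effects. Compounds tested up to 46 uM, 4 hrs.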
Potency is read from the fitted curve at half-maximal effect.

| Compound | activity change, negative = inhibition | Potency |
| --- | --- | --- |
| COc1c(O)c(=O)n2c3ccccc3c3ccnc1c32 | inactive: -4.86% |  |
| O=C(Nc1nc2ccccc2[nH]1)C1CCN(S(=O)(=O)c2cccs2)CC1 |  | inconclusive: 10.3 µM [rising, partial curve] |
| C=CCn1c(SCc2ccc(C(=O)OC)cc2)nnc1-c1sc(N)nc1C | inactive: -1.32% |  |
| CCc1ccc2nc(NC(=O)c3ccc(N4C(=O)CCC4=O)cc3)sc2c1 |  | inconclusive: 14.1 µM [falling, partial curve] |
| CCN(CC)CC#CCC(O)(c1ccccc1)c1ccc(Br)cc1 (stereo not drawn) | inconclusive: -25.5% |  |
| FC(F)Sc1ccc(NC2=NCCCCC2)cc1 |  | inconclusive: 11.2 µM [falling, partial curve, poor fit] |
| O=C(CN1CCCCCC1)Nc1ccc(Br)cc1 |  | inconclusive: 11.6 µM [falling, partial curve] |
| Cc1ccc(C)n1-c1ccc(C(=O)NN)cc1 |  | inconclusive: 6.51 µM [falling, partial curve] |
| Cc1ccc(S(=O)(=O)/N=C(\Nc2cc(C)on2)c2ccc(Cl)cc2)cc1 | inactive: -0.447% |  |
| Cn1/c(=N/NC(=O)c2ccccc2Br)sc2ccccc21 |  | inconclusive: 10 µM [falling, partial curve] |
| N#Cc1ccccc1OCC(=O)Nc1ccc2c(c1)OCCCO2 |  | inconclusive: 15.8 µM [falling, partial curve] |
| N#CCCN(C(=O)Nc1ccc(Cl)cc1)c1ccccc1 | inconclusive: 9.5% |  |
| Cc1sc2nc(SCC(=O)Nc3ccc(S(N)(=O)=O)cc3)[nH]c(=O)c2c1C | inconclusive: -0.291% |  |
| COc1ccc(-c2nc(N)nc(C(F)(F)F)c2-c2cscn2)c(O)c1 | inconclusive: -1.21% |  |
| N#Cc1nn(-c2ccccc2)nc1N1CCCCC1 | inconclusive: 2.37% |  |
| Nc1nc(Sc2c([N+](=O)[O-])cc(C(F)(F)F)cc2[N+](=O)[O-])n[nH]1 | inconclusive: 28.5% |  |
| Cc1cccc(-c2ccc3ncnc(NCc4cccnc4)c3c2)c1 | inconclusive: -5.78% |  |
| COC(=O)CSC1=NS(=O)(=O)c2ccccc21 | inconclusive: 0.711% |  |
| O=C(COC(=O)c1ccc([N+](=O)[O-])cc1Cl)NCc1ccco1 | inconclusive: 5.29% |  |
| CCN(CC)S(=O)(=O)c1cccc(NC(=O)CNc2cccc(S(=O)(=O)N3CCCC3)c2)c1 | inactive: 1.32% |  |
| O=C(CCC1COc2ccccc2O1)Nc1ncccc1O (stereo not drawn) | inconclusive: -11.5% |  |
| COCC(C)NS(=O)(=O)c1ccc(NC(=O)c2ccccn2)cc1 (stereo not drawn) | inconclusive: 4.09% |  |
| CCOC(=O)C(C)On1c(-c2cccc(Cl)c2)nc2ccc([N+](=O)[O-])cc21 (stereo not drawn) | inconclusive: -5.37% |  |

Single entries from above:
activity change, negative = inhibition with `Nc1nc(Sc2c([N+](=O)[O-])cc(C(F)(F)F)cc2[N+](=O)[O-])n[nH]1` reads inconclusive: 28.5%
Potency with `O=C(CN1CCCCCC1)Nc1ccc(Br)cc1` reads inconclusive: 11.6 µM [falling, partial curve]
